PubChem BioAssay AID1671195 – Yale University, 2021

Purpose: 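Knockdowns that increase or decrease uptake of fluorescent LDL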 (primary screen)
Cell system: human Huh7 hepatoma cells
Reagents: siRNA pool against human genes, 18 nM
Time to read-out: about 2 to 2.5 days of knockdown, then 8 h LDL uptake
Challenge: DiI-labelled LDL at 30 µg/ml for 8 h, in lipoprotein-deficient serum medium
Detection: 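Per-cell DiI-LDL intensity by automated imaging; well means scaled to the plate median and given as a robust z-score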
Reading the numbers: robust z-score: higher = more LDL uptake after knockdown
Active means: 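a gene counts as active if at least two replicate z-scores exceed ±2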
In all, the deposit lists about 22,000 reagents; below is an unselected part. In the full data, about 1,510 (6.9%) were called active. 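Active includes knockdowns raising or lowering LDL uptake; positive z-scores mean more uptake, negative mean less.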 Unmarked entries are inactive. Reagents against one gene are numbered here. Reagent sequences are not shown.

no.	target	reagent no.	robust z-score, replicate 1	robust z-score, replicate 2	robust z-score, replicate 3
1	SCT (secretin)	1	0.944	-0.543	-0.422
2	OR5AU1 (olfactory receptor family 5 subfamily AU member 1)	1	0.344	-0.183	-0.2
3	LOC389100 (retired record)	1	0.311	-0.291	-0.476
4	NMNAT2 (nicotinamide nucleotide adenylyltransferase 2)	1	-1.65	-1.39	-1.23
5	TRMT61A (tRNA methyltransferase 61A)	1	-2.37 (active)	-1.52	-1.9
6	RGSL1 (regulator of G protein signaling like 1)	1	0.902	1.21	1.05
7	RGSL1 (regulator of G protein signaling like 1)	2	-0.0495	0.59	0.296
8	NR3C1 (nuclear receptor subfamily 3 group C member 1)	1	-0.38	-0.316	-0.0867
9	LOC387761 (retired record)	1	1.22	0.747	0.921
10	PRRT1 (proline rich transmembrane protein 1)	1	0.491	0.359	0.327
11	SFTPB (surfactant protein B)	1	-0.0437	1.71	-0.798
12	BTBD9 (BTB domain containing 9)	1	0.416	-0.527	-0.157
13	CAPN3 (calpain 3)	1	-2.71 (active)	-2.23	-2.23
14	HACL2 (2-hydroxyacyl-CoA lyase 2)	1	-0.734	0.69	-0.635
15	PSMB10 (proteasome 20S subunit beta 10)	1	2.1	1.06	1.55
16	HCST (hematopoietic cell signal transducer)	1	-0.352	-1.01	-0.815
17	GPR149 (G protein-coupled receptor 149)	1	1.35	0.658	1.21
18	SLC25A51	1	0.834	1.36	0.913
19	PTCH2 (patched 2)	1	-0.0438	-0.573	0.428
20	FOXK1 (forkhead box K1)	1	0.0174	-0.608	-0.42
21	ZBED5 (zinc finger BED-type containing 5)	1	0.934	0.782	1.91
22	LOC391540 (retired record)	1	1.07	0.943	1.25
23	SLPI (secretory leukocyte peptidase inhibitor)	1	-0.642	0.267	-0.608
24	ABI3BP (ABI family member 3 binding protein)	1	-0.749	0.00906	-0.564
25	LOC441371 (retired record)	1	0.94	1.04	1.32
26	CCDC170 (coiled-coil domain containing 170)	1	0.522	0.0687	-0.0475
27	RAB40AL (RAB40A like)	1	-1.05	-0.899	-0.957
28	ZNF891 (zinc finger protein 891)	1	-0.44	-0.186	-0.4
29	GNS (glucosamine (N-acetyl)-6-sulfatase)	1	-1.85	-1.8	-1.85
30	SLC3A2	1	-1.03	-1	-0.455
31	ZNF672 (zinc finger protein 672)	1	-0.663	-0.754	-0.902
32	FABP5P10 (fatty acid binding protein 5 pseudogene 10)	1	0.156	0.311	0.32
33	TMEM247 (transmembrane protein 247)	1	0.839	1.67	1.24
34	ZBTB44 (zinc finger and BTB domain containing 44)	1	-1.87	0.145	-0.153
35	IL22RA1 (interleukin 22 receptor subunit alpha 1)	1	-0.185	-0.407	-0.397
36	LOC441994 (retired record)	1	-1.5	-1.72	-1.8
37	AVIL (advillin)	1	-2.38 (active)	-2.04	-2.79
38	PSG9 (pregnancy specific beta-1-glycoprotein 9)	1	-0.141	0.339	0.706
39	YWHAEP5	1	-0.0517	0.483	0.274
40	ISL2 (ISL LIM homeobox 2)	1	0.125	0.502	-0.585
41	ASCL4 (achaete-scute family bHLH transcription factor 4)	1	-0.49	0.127	0.902
42	PCIF1 (phosphorylated CTD interacting factor 1)	1	0.096	0.243	0.683
43	FYRD1 (FYRN and FYRC domains INO80 complex interactor 1)	1	1.01	-0.381	0.131
44	LOC441534 (retired record)	1	1.63	0.184	0.403
45	TAS2R43 (taste 2 receptor member 43)	1	-0.0898	-0.00596	0.0855
46	LIMA1 (LIM domain and actin binding 1)	1	0.0447	1.52	-0.185
47	ARHGAP29 (Rho GTPase activating protein 29)	1	-0.0908	0.0224	-0.145
48	LINC01181 (long independently transcribed non-coding RNA 1181)	1	-2.47 (active)	-2.39	-2.53

Ordered by “robust z-score, replicate 1” (low to high): some entries from above.
target	reagent no.	robust z-score, replicate 1	robust z-score, replicate 2	robust z-score, replicate 3
CAPN3 (calpain 3)	1	-2.71 (active)	-2.23	-2.23
HACL2 (2-hydroxyacyl-CoA lyase 2)	1	-0.734	0.69	-0.635
HCST (hematopoietic cell signal transducer)	1	-0.352	-1.01	-0.815
PTCH2 (patched 2)	1	-0.0438	-0.573	0.428
SFTPB (surfactant protein B)	1	-0.0437	1.71	-0.798
BTBD9 (BTB domain containing 9)	1	0.416	-0.527	-0.157
PRRT1 (proline rich transmembrane protein 1)	1	0.491	0.359	0.327
SLC25A51	1	0.834	1.36	0.913
LOC387761 (retired record)	1	1.22	0.747	0.921
GPR149 (G protein-coupled receptor 149)	1	1.35	0.658	1.21
PSMB10 (proteasome 20S subunit beta 10)	1	2.1	1.06	1.55

More reagents follow.
no.	target	reagent no.	robust z-score, replicate 1	robust z-score, replicate 2	robust z-score, replicate 3
49	MCEMP1 (mast cell expressed membrane protein 1)	1	-0.626	-0.214	-0.27
50	CMTM3 (CKLF like MARVEL transmembrane domain containing 3)	1	-2.11	-0.363	-0.717
51	RGS11 (regulator of G protein signaling 11)	1	0.099	-0.166	-0.0251
52	TCP10L3 (t-complex 10 like 3 (pseudogene))	1	-0.744	-0.854	0.242
53	RSF1 (remodeling and spacing factor 1)	1	-0.643	-1.27	-0.859
54	L3HYPDH (trans-L-3-hydroxyproline dehydratase)	1	-0.583	0.0704	-0.38
55	FNBP4 (formin binding protein 4)	1	-0.268	-1.51	-0.854
56	ACSL3 (acyl-CoA synthetase long chain family member 3)	1	-0.668	-0.95	-1.43
57	C7 (complement C7)	1	1.94 (active)	1.14	2.66
58	LOC400937 (retired record)	1	1.16	1.11	1.61
59	CHST2 (carbohydrate sulfotransferase 2)	1	0.621	-0.0338	0.415
60	LOC388345 (retired record)	1	1.17	1.94	1.32
61	SBF1 (SET binding factor 1)	1	-1.53	-1.65	-1.29
62	IL1R1 (interleukin 1 receptor type 1)	1	0.6	-0.0762	0.124
63	SLC23A1	1	0.993	0.628	0.962
64	AKR1C8 (aldo-keto reductase family 1 member C8)	1	-0.308	-0.0423	0.318
65	UTS2R (urotensin 2 receptor)	1	0.559	0.275	0.639
66	LOC197317 (retired record)	1	0.943	-0.203	0.404
67	RGS5 (regulator of G protein signaling 5)	1	0.616	1.3	0.989
68	CLK2 (CDC like kinase 2)	1	-1.41	-0.577	-1.38
69	LOC339771 (retired record)	1	1.23	0.915	1.02
70	LOC440112 (retired record)	1	-1.06	-0.629	-0.509
71	PPP4R3A (protein phosphatase 4 regulatory subunit 3A)	1	0.524	1.48	1.73
72	LINC00654 (long independently transcribed non-coding RNA 654)	1	-0.367	-1.17	0.316
73	RPL27A (ribosomal protein L27a)	1	-0.548	-0.784	-0.00133
74	URGCP (upregulator of cell proliferation)	1	0.985	0.447	0.629
75	POR (cytochrome p450 oxidoreductase)	1	-2.3 (active)	-1.64	-2.22
76	ALDH1A2 (aldehyde dehydrogenase 1 family member A2)	1	-1.06	-0.452	-0.724
77	LOC400161 (retired record)	1	-1.71 (active)	-2.05	-2.17
78	JAKMIP1-DT (JAKMIP1 divergent transcript)	1	-0.605	-0.117	-0.362
79	CABS1 (calcium binding protein, spermatid associated 1)	1	0.34	0.713	0.456
80	ADAMTSL3 (ADAMTS like 3)	1	0.905	0.954	0.713
81	PNKD (PNKD metallo-beta-lactamase domain containing)	1	0.434	0.898	-0.67
82	RNF38 (ring finger protein 38)	1	2.8 (active)	2.29	1.81
83	EDN1 (endothelin 1)	1	0.439	0.0356	-0.0695
84	KCNN4 (potassium calcium-activated channel subfamily N member 4)	1	4.46 (active)	3.42	4.52
85	GGTLC2 (gamma-glutamyltransferase light chain 2)	1	-0.385	-0.76	-1.02
86	CEP85 (centrosomal protein 85)	1	-0.53	-0.144	-0.722
87	POMGNT2	1	-0.9	-0.56	-0.426
